Experimental data published in PubChem BioAssay AID1347423 (Functional Genomics Laboratory (NCATS/FGL), 2020).
The campaign covered roughly 52,000 sequences. About 210 (0.4%) were called active.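 Rule for the calls: active = gene whose silencing raises cell survival under the drug, median off-target-corrected z-score across its silencing RNAs 2 or more; inactive = the rest.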 The list shows a part of the results.

experiment: Resistance to Poly (ADP-Ribose) Polymerase inhibitor: Gene Identification via Genome-wide siRNA Screen; settings: mouse BRCA2 R2336H ES cells, olaparib, CellTiter-Glo viability; hits give high values
Method in brief: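 Genome-wide siRNA screen (3 siRNAs/gene, 20 nM) in mouse ES cells carrying hypomorphic BRCA2 R2336H; olaparib 500 nM added 48 h post-transfection, CellTiter-Glo viability 72 h later. Normalized to plate-median negative control; MAD z-scores, gene median, seed-adjusted.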

| Sequence | z-score |
| --- | --- |
| GGCCUGUACGGAGAUCAAUTT against Dpp7 | inactive: -0.0689 |
| CCUGUUUUAUGCCACAAUUTT against Tas2r125 | inactive: -0.0101 |
| CCUAUUGUCCUGCUAACAATT against Aldh7a1 | inactive: -0.901 |
| GGGACACUGUGUCCCUUCUTT against Kua | inactive: 0.0634 |
| GAAGACCAAGCUUUGUACUTT against Olfr339 | inactive: -0.17 |
| GGUCAGAAAAGUAUGUUGGTT against Birc1e | inactive: -0.467 |
| CCUAAAUUUGAGGUAACCUTT against Zfp295 | inactive: -0.524 |
| GCCUCUAUCUGUACUCUGGTT against Pdk2 | inactive: 1.23 |
| GGAAGAGGAGAAUGUCUUGTT against Traip | inactive: -1.26 |
| GGAAAAGGAAUGUGAAUACTT against Celsr2 | inactive: -1.43 |
| CGCAAGAAUCUCCUUUAAUTT against BC029103 | inactive: -0.136 |
| CGUAUUAUUGUCAUGCUGUTT against Gpr142 | inactive: 1.33 |
| GCUGUGUGAAUACCACUUUTT against Cd2bp2 | inactive: -0.94 |
| GCACUUCCACGUGUGGAUUTT against Olfr648 | inactive: -0.545 |
| GGGCUAAAUUAAGCUUCUATT against A630014H24Rik | inactive: -0.213 |
| GCCAACCUACUGAGUCUCATT against 2700094L05Rik | inactive: -0.328 |
| GCUUGAUGAGAAAUCAACUTT against Mtap2 | inactive: 0.397 |
| GGAGCAGAUUAAGUGCCUGTT against Krt2-20 | inactive: 0.0414 |
| GGAUUAAGUUGUCAUCAUUTT against Pftk1 | inactive: 1.03 |
| CCAAGAAGAUUAGAGACAGTT against Olfr591 | inactive: 1.24 |
| GGAAAGUCAGCCUUUAGCATT against Prdx3 | inactive: 0.338 |
| GGAGGGAGUAUCCAUGUCATT against Nr2c2 | inactive: 0.295 |
| CCCUGACAUUUGGAAUGUUTT against 2410116G06Rik | inactive: -1.48 |
| GCAGAAACGAUUGUACCAUTT against Ar | inactive: -0.502 |
| GGAUCAUUAAGACCCAGCATT against 1210002B07Rik | inactive: -2.42 |
| GGAUGGCUUGUUUGGACAGTT against Ptprn | inactive: -0.81 |

2 successive records from above, quoted:

| Sequence | z-score |
| --- | --- |
| GCCAACCUACUGAGUCUCATT against 2700094L05Rik | inactive: -0.328 |
| GCUUGAUGAGAAAUCAACUTT against Mtap2 | inactive: 0.397 |

Next records.

| Sequence | z-score |
| --- | --- |
| GGCUUUGAGAUAUGAACAGTT against Arrdc2 | inactive: -0.0907 |
| GGGACUGCAUACUUAAGUUTT against Amacr | inactive: 0.149 |
| GGUUAUGGUAUUAACAGGUTT against 9130214H05Rik | inactive: 0.0412 |
| GGUUUAGUGAAAAACUGCUTT against Hmga2 | inactive: 0.144 |
| CCUGGUCAUUAGGCUAGGATT against Ecgf1 | inactive: 1.35 |
| GGUUUUUUGAGCAUGGGUUTT against Alk | inactive: -0.498 |
| GAGUCCCUUGGCAGCUCAUTT against Klra8 | inactive: -0.753 |
| GGAGGUACCACGAAUCCUUTT against Gm609 | inactive: 2.06 |
| GGAAAUGAAGAAAAGUGACTT against Stk32a | inactive: -0.395 |
| CGUAUAUGUAUGCUACAUATT against 1500001H12Rik | inactive: -0.483 |
| GGAAAUCAGAGCUGAGUUATT against Ankrd6 | inactive: 1.89 |
| GGGAGGUUAAAAUUGGCUATT against 6030405A18 | inactive: -0.149 |
| GGAUACUGUAAGGAAUAAUTT against Orc4l | inactive: -1.28 |
| GGUGUCAGUAUUUCCUUCATT against C530005A01Rik | inactive: 0.051 |
| CGAUCUACAAGGACACCGATT against Taf1c | inactive: 0.113 |
| GAAGCUUGUAGUGACUGCCTT against V1rc22 | inactive: 1.22 |
| GGAAAAAGAGAAUUCGAUATT against Wee1 | inactive: -2.54 |
| GGUUUGUCUCCAUUCUUAUTT against Pnp | inactive: -0.113 |
| GCUAUGAGGCUUUGUUCUUTT against 2610511O17Rik | inactive: -0.565 |
| GGCUGUCAUCCAAGAACUUTT against Mtcp1 | inactive: -2.17 |
| GGAAAUCCAACAGCAGAUCTT against Rnf167 | inactive: -0.233 |
| GCGACUUGUCCUAUUUCGATT against 4732435N03Rik | inactive: 0.068 |
| GGAUCCUGCAUAUCUCAAATT against Mrps18c | inactive: 0.201 |
| GGGCCUUUUUGAGUACGACTT against Cryaa | inactive: 1.67 |
| GGCAUUAAAGUACAGCAUGTT against Immt | inactive: 0.561 |
| GGUCUUGGCUGAUUUUAUGTT against Cyp24a1 | inactive: 0.657 |
